Test results: PubChem BioAssay AID1487 (National Center for Advancing Translational Sciences (NCATS), 2009)
“And” between values parts separate entries of the source, which are not always exact repeats. Equal values may be shown once. Some of the results follow. The main result of the screen is listed elsewhere. These columns were measured beside it and carry no call. Most of these compounds were active or inconclusive in the main read-out, so they are no random draw. Words in brackets tell the shape of the fitted curve; partial curves, single points and poor fits give uncertain potencies.

Experiment: qHTS Assay for Modulators of Lamin A Splicing
Settings: HeLa LMNA splicing GFP/RFP minigene ratio, 48 h
Summary of the method: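 S3 HeLa stable clones carrying a lamin A-EGFP splicing minigene plus DsRed2 were seeded at 600 cells/well in Opti-MEM with 2% FBS, pin-dosed and incubated 48 h at 37°C. Acumen cytometry (488 nm) gave the GFP/RFP total-intensity ratio.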

[1] = measured here: GFP splicing reporter channel
[2] = measured here: RFP viability control channel

| SMILES | AC50 [1] | AC50 [2] |
| --- | --- | --- |
| CC(C)(C)c1ccc(C(=O)CCCN2CCC(OC(c3ccccc3)c3ccccc3)CC2)cc1 | 7.94 µM [falling, partial curve, poor fit] | 6.31 µM [falling, partial curve, poor fit] |
| Cc1cc2ncn(/N=C/c3ccc([N+](=O)[O-])o3)c2cc1C | 35.5 µM [falling, single point] | 22.4 µM [falling, partial curve] |
| COc1ccc(N2CCN(CC(=O)Nc3cccc(S(=O)(=O)N4CCOCC4)c3)CC2)cc1 |  | 35.5 µM [rising, single point] |
| Cc1cc(O)c(C(C)C)cc1C1(c2cc(C(C)C)c(O)cc2C)OC(=O)c2ccccc21 |  | 12.6 µM [falling, single point] |
| CCCc1nc2ccc(NC(=O)c3cccs3)cc2c(=O)n1Cc1ccc(Cl)cc1 |  | 0.0316 µM [rising, full curve, poor fit] |
| COc1ccc([N+](=O)[O-])cc1N(CC(=O)NC(C(C)C)C(C)C)S(C)(=O)=O | 0.1 µM [rising, partial curve, poor fit] |  |
| O=C1C=C(Nc2ccccc2)C(=O)c2ccccc21 |  | 0.0178 µM [falling, full curve, poor fit] |
| Cc1occc1C(=O)NNC(=S)Nc1cccc([N+](=O)[O-])c1 |  | 0.0562 µM [falling, full curve, poor fit] |
| Cn1c(COc2ccc(Br)cc2)nnc1SC1CCc2ccccc2C1=O (stereo unspecified) | 8.91 µM [rising, partial curve, poor fit] | 12.6 µM [rising, partial curve] |
| COc1ccc(CN(CCC(c2ccccc2)C2CCOC(C)(C)C2)C(C)=O)cc1 (stereo unspecified) | 11.2 µM [rising, partial curve, poor fit] | 12.6 µM [rising, partial curve, poor fit] |
| COc1ccc(C2CC(c3ccc([N+](=O)[O-])cc3)=NN2C(=O)c2ccccc2)cc1OC (stereo unspecified) |  | 8.91 µM [falling, partial curve] |
| CCOC(=O)C1(Cc2ccccc2)NC(c2ccccc2F)C2C(=O)N(CC)C(=O)C21 (stereo unspecified) |  | 6.31 µM [rising, full curve, poor fit] |
| Cn1c(CN2CCCCC2)nc2cc(NC(=O)c3ccc(F)cc3)ccc21 | 7.08 µM [rising, partial curve] |  |
| O=C1COc2ccc(C(=O)COC(=O)CNC(=O)c3ccco3)cc2N1 | 0.02 µM [falling, full curve, poor fit] |  |
| CCCCCC(O)c1cccc(OCc2ccc3ccccc3n2)c1 (stereo unspecified) | 7.94 µM [rising, partial curve, poor fit] and 5.01 nM [falling, full curve, poor fit] | 14.1 µM [rising, partial curve] and 3.98 nM [falling, full curve, poor fit] |
| CCNC(=S)Nc1cc(Cl)ccc1Oc1ccccc1 | 14.1 µM [rising, single point] | 35.5 µM [rising, single point] |
| Nc1cc(-c2ccccc2)ccc1O |  | 7.08 µM [rising, full curve, poor fit] |

| SMILES | AC50 [1] | AC50 [2] |
| --- | --- | --- |
| CN(CC(=O)Nc1ccccc1Cl)CC(=O)Nc1ccccc1[N+](=O)[O-] |  | 0.398 µM [falling, full curve, poor fit] |
| O=c1c2[nH]c3ccccc3c2nc(SCc2cccc(F)c2)n1-c1ccccc1 |  | 35.5 µM [falling, single point] |
| CCOc1ccccc1NC(=O)C1CCCN(S(=O)(=O)c2cccc3nsnc23)C1 (stereo unspecified) | 1.26 µM [rising, full curve, poor fit] | 17.8 µM [rising, partial curve] |
| CC1CC(C)CN(S(=O)(=O)c2ccc(C(=O)NCCCn3ccnc3)cc2)C1 (stereo unspecified) |  | 6.31 µM [rising, partial curve] |
| FC(F)(F)c1nc2ccccc2n2c(-c3ccc(Cl)cc3)nnc12 | 35.5 µM [falling, single point] | 35.5 µM [falling, single point] |
| NC(=S)N/N=C/c1ccc(C(F)(F)F)cc1 | 35.5 µM [falling, single point] | 31.6 µM [falling, single point] |
| C=CCc1c(C)nc(SC)nc1Nc1ccc(C)cc1 |  | 12.6 µM [rising, partial curve] |
| Cc1nn2c3ccccc3nc2c2ccccc12 |  | 12.6 µM [rising, partial curve] |
| Cc1ccc(-c2nn(-c3ccccc3)c3[nH]c(=O)c(CNCc4ccccc4)cc23)cc1 | 35.5 µM [falling, single point] |  |
| O=C1CCCCCN1Cc1nnc(SCc2nc3ccccc3s2)n1-c1ccccn1 | 0.0398 µM [rising, full curve, poor fit] | 0.0631 µM [rising, full curve, poor fit] |
| O=c1ccn([C@@H]2O[C@H](CO)[C@@H](O)[C@H]2O)c(=O)[nH]1 | 0.0112 µM [falling, full curve, poor fit] |  |
| N#CC1=C(N)N(c2ccc(F)cc2)C2=C(C1c1ccc(O)cc1)S(=O)(=O)CC2 (stereo unspecified) | 11.2 µM [falling, single point] |  |
| Cc1c(Cl)c(=O)oc2cc(OC(C)C)ccc12 | 2.24 µM [rising, full curve, poor fit] | 12.6 µM [rising, partial curve, poor fit] |
| CCC1=NN2C(=N)/C(=C\c3ccc(OCc4cc(=O)n5nc(CC)sc5n4)c(OC)c3)C(=O)N=C2S1 |  | 35.5 µM [rising, single point] |
| COc1ccc(C(=O)/C=C/c2ccc(N3CCCCC3)c([N+](=O)[O-])c2)c(OC)c1 | 35.5 µM [falling, single point] | 3.55 µM [rising, partial curve] |
| CC1=Cc2ccccc2C(C#N)N1C(=O)c1ccccc1 (stereo unspecified) | 31.6 µM [rising, single point] | 31.6 µM [rising, single point] |

Look-ups from the results shown.
Value of `COc1ccc(C(=O)/C=C/c2ccc(N3CCCCC3)c([N+](=O)[O-])c2)c(OC)c1` under AC50 [1]: 35.5 µM [falling, single point]
Value of `CN(CC(=O)Nc1ccccc1Cl)CC(=O)Nc1ccccc1[N+](=O)[O-]` under AC50 [2]: 0.398 µM [falling, full curve, poor fit]
